Drawing on PubChem BioAssay AID901 (National Center for Advancing Translational Sciences (NCATS), 2007), this text covers AC50 for 41 compounds.

The other results are listed elsewhere or left out. Further columns of the screen follow, without active or inactive calls. The list favours compounds with an active or inconclusive main result. Words in brackets tell the shape of the fitted curve; partial curves, single points and poor fits give uncertain potencies.

This experiment can be described thus: qHTS Assay for Identifying the Cell-Membrane Permeable IMPase Inhibitors. Particulars: CHO-M1 cells, IP1 accumulation, HTRF TR-FRET ratio; measured here: donor channel 620 nm AC50.
The term AC50 denotes the midpoint of the concentration-response curve, whichever way the signal moves. Turning to `Cc1cc(C)n(-c2nncc(-c3ccccc3)n2)n1`, the AC50 was 6.31 µM [falling, single point].

`CNS(=O)(=O)c1cccc(C(=O)OCC(=O)Nc2sc3c(c2C#N)CCCCC3)c1`: the AC50 was 3.98 µM [rising, single point].

As to `COc1ccc(-n2nc(C(=O)NCC(=O)NCc3ccco3)c3ccccc3c2=O)cc1`, the AC50 is 3.16 µM [falling, partial curve, poor fit].

Turning to `O=C(Nc1c(F)cc(F)cc1Br)c1cc(-c2ccco2)on1`, the AC50 was 2.51 µM [rising, single point].

For `COC(=O)c1sccc1NC(=O)c1cc2c(s1)CCCC2`, the AC50 was 31.6 µM [falling, single point].

For `O=C(Nc1nc2ccccc2n1CCN1CCOCC1)c1cn(-c2ccccc2)nc1-c1ccccc1`, the concentration at half-maximal activity (AC50) is 0.00501 µM [rising, full curve, poor fit].

Consider `Cc1cc(C)cc(N(CC(=O)NCC2CCCO2)C(=O)CN2C(=O)COc3ccccc32)c1` (stereo unspecified), for which the AC50 was 2 µM [falling, full curve, poor fit].

As for `CC1CN(C(=O)CCc2ccccc2)C(C)CN1C(=O)CCc1ccccc1` (stereo unspecified), the AC50 was 12.6 µM [rising, partial curve, poor fit].

For `O=C(Nc1ccc2oc(-c3ccccc3)nc2c1)c1cccs1`, the AC50 was 0.2 µM [falling, full curve].

On to `Cc1nc2scc(-c3cccs3)c2c(=O)o1`, for which the AC50 was 0.0501 µM [falling, full curve].

Regarding `Cc1ccc(-c2cc(-c3ccccc3)c(C#N)c(Br)n2)cc1`, the AC50 was 22.4 µM [rising, partial curve].

Take `O=C(CSc1nnc(-c2ccccc2)o1)N1CCN(c2ccccc2)CC1`: the AC50 was 3.16 µM [rising, single point].

Take `Cc1ccc(S(N)(=O)=O)cc1NC(=O)/C=C/c1cccs1`: the AC50 was 31.6 µM [falling, single point].

Consider `O=C(N/N=C/c1ccc(O)cc1)c1ccc(NC(=O)c2ccccc2Br)cc1`, for which the AC50 was 2.51 µM [falling, single point].

For `CCn1c2c(c3cc(Br)ccc31)CCC/C2=N\O`, the AC50 was 12.6 µM [rising, partial curve].

Take `COC(=O)C1=C(C)NC(C)=C([N+](=O)[O-])[C@H]1c1ccccc1C(F)(F)F`: the AC50 was 0.00251 µM [falling, full curve, poor fit].

`CCOc1ccccc1CNC(=O)C1CCC(=O)N1C(C)C` (stereo unspecified): the AC50 was 0.631 µM [rising, single point].

For `CCOc1ccc(-c2cn(CCC#N)cn2)cc1`, the concentration at half-maximal activity (AC50) was 0.01 µM [rising, full curve, poor fit].

As to `CCOc1cccc(NC(=O)CSc2ncc(-c3ccccc3)[nH]2)c1`, the AC50 was 0.00316 µM [rising, full curve, poor fit].

Turning to `CCOC(=O)c1c(C)[nH]c(=S)c(C#N)c1-c1ccc(OC)cc1`, the AC50 was 0.126 µM [falling, full curve, poor fit].

As for `O=C(Cn1ncc2c3ccccc3n(Cc3ccccc3)c2c1=O)N1CCN(c2ncccn2)CC1`, the AC50 is 1.58 µM [falling, full curve, poor fit].

In the case of `COc1ccc(Cl)cc1-c1n[nH]c(=S)o1`, the AC50 is 12.6 µM [rising, partial curve].

Consider `C=CCN(CC=C)S(=O)(=O)c1ccc(NC(=S)NC(=O)/C=C/c2ccccc2)cc1`, for which the half-maximal activity concentration (AC50) was 0.794 µM [rising, single point].

Turning to `Cc1oc(-c2ccccc2F)nc1CS(=O)(=O)CC(=O)N1CCOCC1`, the AC50 is 35.5 µM [rising, single point].

With `CCOC(=O)N1CCN(C(=O)C2CCCN(S(=O)(=O)c3cc(C)ccc3OC)C2)CC1` (stereo unspecified), the AC50 is 0.0355 µM [falling, full curve, poor fit].

For `O=c1oc(-c2ccccc2)nc2c1cnn2-c1ccccc1`, the AC50 was 1.12 µM [falling, full curve].

As to `Cc1nn(Cc2ccccc2Cl)c(C)c1NC(=O)CCCn1nc([N+](=O)[O-])c(Cl)c1C`, the AC50 is 0.2 µM [falling, full curve, poor fit].

On to `Cc1ccc(OCC(=O)NC(=S)Nc2ccc(Br)c(C)n2)cc1`, for which the AC50 is 0.398 µM [falling, full curve, poor fit].

Regarding `O=C(CN1C2=NCCN2c2ccccc21)N1CCOCC1`, the AC50 was 0.251 µM [falling, full curve, poor fit].

As to `Cc1ccc(S(=O)(=O)NCC(=O)OCC(=O)c2ccc(Br)s2)cc1`, the AC50 was 15.8 µM [rising, partial curve].

On to `OCCN(CCO)CC(O)COCCC12CC3CC(CC(C3)C1)C2` (stereo unspecified), for which the AC50 was 12.6 µM [falling, partial curve, poor fit].

Regarding `CCCCn1c(SCC(=O)Nc2cc(C)[nH]n2)nc2ccsc2c1=O`, the AC50 is 6.31 µM [rising, single point].

As to `O=C(CSc1ccc2nnc(-c3ccc(Cl)cc3)n2n1)N1CCCc2ccccc21`, the AC50 was 15.8 µM [rising, partial curve].

On to `CC(=O)N=c1sc2nc3ccccc3nc2n1N(C(C)=O)C(C)=O`, for which the AC50 was 10 µM [rising, partial curve].

For `O=C1c2cnc3nc(SCc4ccc(Cl)cc4)nn3c2CC2c3ccccc3CCN12` (stereo unspecified), the AC50 was 0.02 µM [rising, full curve, poor fit].

For `Cc1cccc(N2CN=c3s/c(=C\c4ccncc4)c(=O)n3C2)c1`, the AC50 was 10 µM [falling, partial curve].

Regarding `Cc1cc(NC(=O)CSc2nc3c(c(=O)n(C)c(=O)n3C)n2C(C)C)no1`, the AC50 is 0.00316 µM [falling, full curve, poor fit].

As for `CCOC(=O)c1ccc(NC(=O)Cn2cc(C(=O)c3cccs3)c3ccccc32)cc1`, the AC50 was 0.251 µM [falling, full curve, poor fit].

For the compound `O=c1oc2c(O)c(O)cc3c(=O)oc4c(O)c(O)cc1c4c23`, the AC50 is 15.8 µM [falling, partial curve].

Turning to `COc1ccc(NC(=O)CN2CCC3(O)CCCCC3C2c2cc(OC)ccc2OC)cc1` (stereo unspecified), the AC50 is 0.0251 µM [rising, full curve, poor fit].

`COC(=O)c1ccc2c(=O)n(Cc3ccco3)c(SCC(=O)Nc3ccc(C)c(Cl)c3)nc2c1`: the AC50 is 25.1 µM [rising, single point].
